Results from patent publication CN101309933A.
No constants are given. Whether binding was seen depends on the method and setting. Some entries that bind do so weakly or less than the wild type.

Sequences of proteins named here, by UniProt entry; tags and fusion partners are left off. Residues count along the entry.
UniProt D3ZBN3, residues 23-977: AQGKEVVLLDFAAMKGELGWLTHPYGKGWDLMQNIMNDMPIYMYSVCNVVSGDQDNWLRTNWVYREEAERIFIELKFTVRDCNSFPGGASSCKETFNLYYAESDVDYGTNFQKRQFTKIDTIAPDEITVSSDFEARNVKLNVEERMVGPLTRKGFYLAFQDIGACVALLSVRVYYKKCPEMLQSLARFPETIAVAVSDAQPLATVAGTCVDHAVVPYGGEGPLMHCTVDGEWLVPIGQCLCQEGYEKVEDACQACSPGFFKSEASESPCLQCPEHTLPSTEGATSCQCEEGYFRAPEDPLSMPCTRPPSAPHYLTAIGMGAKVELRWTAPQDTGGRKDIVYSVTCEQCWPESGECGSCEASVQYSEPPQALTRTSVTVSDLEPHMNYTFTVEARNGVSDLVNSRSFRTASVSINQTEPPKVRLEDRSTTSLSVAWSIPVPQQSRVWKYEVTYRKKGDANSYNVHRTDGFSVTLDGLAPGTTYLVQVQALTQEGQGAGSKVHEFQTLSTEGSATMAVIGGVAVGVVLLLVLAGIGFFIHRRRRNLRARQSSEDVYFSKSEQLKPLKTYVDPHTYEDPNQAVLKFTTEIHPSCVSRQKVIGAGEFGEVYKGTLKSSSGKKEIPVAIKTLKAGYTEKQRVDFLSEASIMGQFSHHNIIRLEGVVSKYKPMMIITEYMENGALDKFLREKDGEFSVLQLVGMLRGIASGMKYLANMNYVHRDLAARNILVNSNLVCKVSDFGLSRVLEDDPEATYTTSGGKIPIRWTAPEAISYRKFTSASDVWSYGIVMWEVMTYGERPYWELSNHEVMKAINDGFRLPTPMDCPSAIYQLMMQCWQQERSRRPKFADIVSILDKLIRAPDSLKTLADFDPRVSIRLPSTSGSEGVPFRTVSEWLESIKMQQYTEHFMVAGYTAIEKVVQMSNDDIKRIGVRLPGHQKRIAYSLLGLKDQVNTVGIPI

Target: 大鼠EphA2 (expressed on cells) (rat) (UniProt D3ZBN3)
Assay: flow cytometry on cell lines, 1 μg antibody, PE goat anti-human IgG

binding	Binder
binds	抗-EphA2抗体3F2 (antibody, V domains shown) VH: EVQLVESGGGVVRPGGSLRLSCAASGFTVSDYSMNWVRQAPGKGLEWIGFIRNKANAYTTEYSASVKGRFTISRDDSKNTLYLQMNSLKTEDTAVYYCTTYPRYHAMDSWGQGTMVTVSS VL: AIQLTQSPSSLSASVGDRVTITCRASQSISNNLHWYLQKPGQSPQLLIYYGFQSISGVPSRFSGSGSGTDFTLTISSLQPEDFATYYCQQANSWPLTFGGGTKLEIK
binds	抗-EphA2抗体1H3 (antibody, V domains shown) VH: EVQLLESGGGLVQPGGSLRLSCAASGFTFSMYAMRWVRQAPGKGLEWVSVIGPSGGWTPYADSVKGRFTISRDNSKNTLYLQMNSLRAEDTAVYYCARDRGIYGMDVWGQGTTVTVSS VL: DIQMTQSPSFLSASVGDRVTITCRASQGISSYLAWYQQKPGKAPKLLIYAASTLQSGVPSRFSGSGSGTEFTLTISSLQPEDFATYYCLELNNYPFTFGLGTKVHIK
